# From the supplement of paper PMC8728848
# This is one part of the list.
# B1: PX14343G-pdi-535-24-535 (Parabacteroides distasonis) (protein)
# chain: LDTVPKDQLAPSTTWQTEADAKGFIVGCYKDLLDGNTLLYLDCGSDIGYNNFPWEGFRPWGDGSLSSSNPGQILYDYKSIRKANTFLENVDKVTFSSDAVKANYVAQAKAIRAYKYFLMNWWYGGVPIISSYSSADEAKVERNTEQEVRDYIAKDLDEALAGIAEAPEARGYIAKGAVLAIKMREALYYGDWQKAKDAAKAIIDLKQYELDPDYTNLFKVSGVDSKEIILADQNIETLDGLGTIGQMYNNVDQGWSSIVPTQNLVDMYEMSDGLTKEESKTYDAKHPFANRDPRMAMTILYPGRDWRGDVLNTLDEKLQDGTVNKNFPTYTDNASKSALTWAKYLDPMDQYGDVWSSGACPIVFRYAEVLLTYAEAANELSGPSDEIYGYLNQIRQRVGMGEVDKAKYGTKDKLRELIRRERTVELAGEGLRRADIVRWQEDGKMLAEKVMNGDLLRVTGTINYGESEPTKRAEITGTAVIETRQFSSRNRYLPIPQTSMDKNPNLKQNPGY
# What was measured:
# Test in all cases: glycan array binding signal (z-score within array); higher = stronger binding
# Settings in all cases: glycan notation: IUPAC condensed, linker removed
# Glc(b1-6)Glc = target: Glc(b1-6)Glc
# Outline: (§1)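 From the Consortium for Functional Glycomics database, 3228 arrays were curated, keeping only those whose protein sequence was available. Binding is given as a within-array Z-score averaged across arrays sharing a protein sequence and across linkers. Negative Z-scores can be read as non-binding.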
# GlcA(b1-3)Gal = target: GlcA(b1-3)Gal
# Outline: as §1
# GlcA(b1-3)GlcNAc = target: GlcA(b1-3)GlcNAc
# Outline: as §1
# GlcA(b1-6)Gal = target: GlcA(b1-6)Gal
# Outline: as §1
# [1] = target: GlcA3S(b1-3)Gal(b1-4)GlcNAc(b1-2)Man
# Outline: as §1
# [2] = target: GlcA3S(b1-3)Gal(b1-4)GlcNAc(b1-3)Gal(b1-4)Glc
# Outline: as §1
# [3] = target: GlcNAc(a1-3)Gal(b1-4)GlcNAc
# Outline: as §1
# [4] = target: GlcNAc(a1-4)Gal(b1-3)GlcNAc
# Outline: as §1
# [5] = target: GlcNAc(a1-4)Gal(b1-4)GalNAc
# Outline: as §1
# [6] = target: GlcNAc(a1-4)Gal(b1-4)GlcNAc
# Outline: as §1
# [7] = target: GlcNAc(a1-4)Gal(b1-4)GlcNAc(b1-3)Gal(b1-4)Glc
# Outline: as §1
# [8] = target: GlcNAc(a1-4)Gal(b1-4)GlcNAc(b1-3)Gal(b1-4)GlcNAc
# Outline: as §1
# [9] = target: GlcNAc(a1-4)Gal(b1-4)GlcNAc(b1-3)Gal(b1-4)GlcNAc(b1-3)Gal(b1-4)GlcNAc
# Outline: as §1
# [10] = target: GlcNAc(a1-4)Gal(b1-4)GlcNAc(b1-3)Gal(b1-4)[Fuc(a1-3)]GlcNAc(b1-3)Gal(b1-4)[Fuc(a1-3)]GlcNAc
# Outline: as §1
# [11] = target: GlcNAc(a1-6)Gal(b1-4)GlcNAc
# Outline: as §1
# [12] = target: GlcNAc(b1-2)Gal(b1-3)GalNAc
# Outline: as §1
# [13] = target: GlcNAc(b1-2)Man(a1-3)[GlcNAc(b1-2)Man(a1-6)]Man(b1-4)GlcNAc(b1-4)GlcNAc
# Outline: as §1
# [14] = target: GlcNAc(b1-2)Man(a1-3)[GlcNAc(b1-2)Man(a1-6)]Man(b1-4)GlcNAc(b1-4)[Fuc(a1-6)]GlcNAc
# Outline: as §1
# [15] = target: GlcNAc(b1-2)Man(a1-3)[GlcNAc(b1-4)][GlcNAc(b1-2)Man(a1-6)]Man(b1-4)GlcNAc(b1-4)GlcNAc
# Outline: as §1
# [16] = target: GlcNAc(b1-2)Man(a1-3)[GlcNAc(b1-4)][GlcNAc(b1-2)Man(a1-6)]Man(b1-4)GlcNAc(b1-4)[Fuc(a1-6)]GlcNAc
# Outline: as §1
# [17] = target: GlcNAc(b1-2)[GlcNAc(b1-4)]Man(a1-3)[GlcNAc(b1-2)Man(a1-6)]Man(b1-4)GlcNAc(b1-4)GlcNAc
# Outline: as §1
# [18] = target: GlcNAc(b1-2)[GlcNAc(b1-4)]Man(a1-3)[GlcNAc(b1-4)][GlcNAc(b1-2)Man(a1-6)]Man(b1-4)GlcNAc(b1-4)GlcNAc
# Outline: as §1
# [19] = target: GlcNAc(b1-2)[GlcNAc(b1-4)]Man(a1-3)[GlcNAc(b1-4)][GlcNAc(b1-2)[GlcNAc(b1-6)]Man(a1-6)]Man(b1-4)GlcNAc(b1-4)GlcNAc
# Outline: as §1
# [20] = target: GlcNAc(b1-2)[GlcNAc(b1-4)]Man(a1-3)[GlcNAc(b1-4)][GlcNAc(b1-2)[GlcNAc(b1-6)]Man(a1-6)]Man(b1-4)GlcNAc(b1-4)[Fuc(a1-6)]GlcNAc
# Outline: as §1
# [21] = target: GlcNAc(b1-2)[GlcNAc(b1-6)]Man(a1-6)[GlcNAc(b1-2)Man(a1-3)]Man(b1-4)GlcNAc(b1-4)GlcNAc
# Outline: as §1
# [22] = target: GlcNAc(b1-2)[GlcNAc(b1-6)]Man(a1-6)[GlcNAc(b1-2)Man(a1-3)]Man(b1-4)GlcNAc(b1-4)[Fuc(a1-6)]GlcNAc
# Outline: as §1
# [23] = target: GlcNAc(b1-2)[GlcNAc(b1-6)]Man(a1-6)[GlcNAc(b1-4)][GlcNAc(b1-2)Man(a1-3)]Man(b1-4)GlcNAc(b1-4)GlcNAc
# Outline: as §1
# GlcNAc(b1-3)Fuc = target: GlcNAc(b1-3)Fuc
# Outline: as §1
# GlcNAc(b1-3)Gal = target: GlcNAc(b1-3)Gal
# Outline: as §1
# [24] = target: GlcNAc(b1-3)Gal(b1-3)GalNAc
# Outline: as §1
# GlcNAc(b1-3)Gal(b1-4)Glc = target: GlcNAc(b1-3)Gal(b1-4)Glc
# Outline: as §1
# [25] = target: GlcNAc(b1-3)Gal(b1-4)GlcNAc
# Outline: as §1
# [26] = target: GlcNAc(b1-3)Gal(b1-4)GlcNAc(b1-2)Man(a1-3)[GlcNAc(b1-3)Gal(b1-4)GlcNAc(b1-2)Man(a1-6)]Man(b1-4)GlcNAc(b1-4)GlcNAc
# Outline: as §1
# [27] = target: GlcNAc(b1-3)Gal(b1-4)GlcNAc(b1-2)Man(a1-3)[GlcNAc(b1-3)Gal(b1-4)GlcNAc(b1-2)Man(a1-6)]Man(b1-4)GlcNAc(b1-4)[Fuc(a1-6)]GlcNAc
# Outline: as §1
# [28] = target: GlcNAc(b1-3)Gal(b1-4)GlcNAc(b1-2)[GlcNAc(b1-3)Gal(b1-4)GlcNAc(b1-6)]Man(a1-6)[GlcNAc(b1-3)Gal(b1-4)GlcNAc(b1-2)Man(a1-3)]Man(b1-4)GlcNAc(b1-4)GlcNAc
# Outline: as §1
# [29] = target: GlcNAc(b1-3)Gal(b1-4)GlcNAc(b1-3)Gal(b1-4)GlcNAc
# Outline: as §1
# [30] = target: GlcNAc(b1-3)Gal(b1-4)GlcNAc(b1-3)Gal(b1-4)GlcNAc(b1-2)Man(a1-3)[GlcNAc(b1-3)Gal(b1-4)GlcNAc(b1-3)Gal(b1-4)GlcNAc(b1-2)Man(a1-6)]Man(b1-4)GlcNAc(b1-4)GlcNAc
# Outline: as §1
binder,measurement,setting,value
B1,glycan array binding signal (z-score),Glc(b1-6)Glc,-0.808
same,glycan array binding signal (z-score),GlcA(b1-3)Gal,0.33
same,glycan array binding signal (z-score),GlcA(b1-3)GlcNAc,0.187
same,glycan array binding signal (z-score),GlcA(b1-6)Gal,-0.046
same,glycan array binding signal (z-score),[1],0.521
same,glycan array binding signal (z-score),[2],-0.239
same,glycan array binding signal (z-score),[3],-0.375
same,glycan array binding signal (z-score),[4],0.205
same,glycan array binding signal (z-score),[5],-1.02
same,glycan array binding signal (z-score),[6],2.04
same,glycan array binding signal (z-score),[7],0.258
same,glycan array binding signal (z-score),[8],-0.307
same,glycan array binding signal (z-score),[9],-0.853
same,glycan array binding signal (z-score),[10],1.32
same,glycan array binding signal (z-score),[11],1.81
same,glycan array binding signal (z-score),[12],-0.469
same,glycan array binding signal (z-score),[13],-0.317
same,glycan array binding signal (z-score),[14],-0.344
same,glycan array binding signal (z-score),[15],0.596
same,glycan array binding signal (z-score),[16],-0.585
same,glycan array binding signal (z-score),[17],-0.781
same,glycan array binding signal (z-score),[18],-0.642
same,glycan array binding signal (z-score),[19],-1.19
same,glycan array binding signal (z-score),[20],-0.715
same,glycan array binding signal (z-score),[21],0.316
same,glycan array binding signal (z-score),[22],-0.446
same,glycan array binding signal (z-score),[23],-0.748
same,glycan array binding signal (z-score),GlcNAc(b1-3)Fuc,0.719
same,glycan array binding signal (z-score),GlcNAc(b1-3)Gal,1.1
same,glycan array binding signal (z-score),[24],0.376
same,glycan array binding signal (z-score),GlcNAc(b1-3)Gal(b1-4)Glc,-0.128
same,glycan array binding signal (z-score),[25],-0.842
same,glycan array binding signal (z-score),[26],1.18
same,glycan array binding signal (z-score),[27],-0.327
same,glycan array binding signal (z-score),[28],2.37
same,glycan array binding signal (z-score),[29],-0.554
same,glycan array binding signal (z-score),[30],1.13

# Reformatted bar-delimited: entries from further up
binder | measurement | setting | value
B1 | glycan array binding signal (z-score) | [15] | 0.596
same | glycan array binding signal (z-score) | GlcNAc(b1-3)Fuc | 0.719
